Here are results for one substance from article PMC10545747 (Nature Communications, 2023).

Square brackets hold non-standard residues; d marks the D form.

A short description of this data set: general procedure: peptide synthesis; DIC, HOBt; cyclization PyBOP/HOBt/DIEA. The conditions noted are these: whole synthesis.

“cyclo([dF]ATRL[dF]PVRL) (SMILES CC(C)C[C@@H]1NC(=O)[C@H](CCCNC(=N)N)NC(=O)[C@H](C(C)C)NC(=O)[C@@H]2CCCN2C(=O)[C@@H](Cc2ccccc2)NC(=O)[C@H](CC(C)C)NC(=O)[C@H](CCCNC(=N)N)NC(=O)[C@H]([C@@H](C)O)NC(=O)[C@H](C)NC(=O)[C@@H](Cc2ccccc2)NC1=O)” had an isolated yield of 25.0%. For the same substance, the “final HPLC purity” value (HPLC) is recorded as 98.2%.
